Consider 3 compounds from patent US20050208394A1, “Dye-containing curable composition, color filter and method of producing the color filter” (FUJI PHOTO FILM CO., LTD., priority 2004, published 2005).

The series is described as follows: Pattern shape: sectional shape of the formed pattern image by SEM. Also on record: key: A: The pattern section had a sharp rectangular.; B: The pattern section was found to have a slightly taper shape.; C: The pattern section had a taper shape. The settings on record: 20 μm pattern image.

For `Cc1cc(C)n(-c2ccc3c(c2)-c2nc-3nc3[n-]c(nc4nc(nc5[n-]c(n2)c2ccc(-n6nc(C)cc6C)cc52)-c2cc(-n5nc(C)cc5C)ccc2-4)c2ccc(-n4nc(C)cc4C)cc32)n1.[Ni+2]` [Exemplified compound (16)], the Pattern shape result (positive type) is “A”. For the compound “Tetra-α-(3,5-dimethylpyrazolyl)zinc phthalocyanine [Exemplified compound (3)]”, the Pattern shape entry is, setting by setting: (negative type) “A”; (positive type) “A”. “Tetra-β-(3,5-dimethylpyrazolyl)zinc phthalocyanine [Exemplified compound (4)]”: the Pattern shape result (negative type) was “A” and the Pattern shape result (positive type) was “A”.
